Data on 1 substance can be found in EP1615032A1 (Kido, Hiroshi, dated 2006).

Chains of the proteins cited; added tags and fusions are not shown. Lines headed by an entry give the natural chain unless they say otherwise; changes in a name come on top. A line that says so, or that is headed by a name, gives the form on record, which may keep a tag or linker. Residues count along the entry.
UniProt P00747: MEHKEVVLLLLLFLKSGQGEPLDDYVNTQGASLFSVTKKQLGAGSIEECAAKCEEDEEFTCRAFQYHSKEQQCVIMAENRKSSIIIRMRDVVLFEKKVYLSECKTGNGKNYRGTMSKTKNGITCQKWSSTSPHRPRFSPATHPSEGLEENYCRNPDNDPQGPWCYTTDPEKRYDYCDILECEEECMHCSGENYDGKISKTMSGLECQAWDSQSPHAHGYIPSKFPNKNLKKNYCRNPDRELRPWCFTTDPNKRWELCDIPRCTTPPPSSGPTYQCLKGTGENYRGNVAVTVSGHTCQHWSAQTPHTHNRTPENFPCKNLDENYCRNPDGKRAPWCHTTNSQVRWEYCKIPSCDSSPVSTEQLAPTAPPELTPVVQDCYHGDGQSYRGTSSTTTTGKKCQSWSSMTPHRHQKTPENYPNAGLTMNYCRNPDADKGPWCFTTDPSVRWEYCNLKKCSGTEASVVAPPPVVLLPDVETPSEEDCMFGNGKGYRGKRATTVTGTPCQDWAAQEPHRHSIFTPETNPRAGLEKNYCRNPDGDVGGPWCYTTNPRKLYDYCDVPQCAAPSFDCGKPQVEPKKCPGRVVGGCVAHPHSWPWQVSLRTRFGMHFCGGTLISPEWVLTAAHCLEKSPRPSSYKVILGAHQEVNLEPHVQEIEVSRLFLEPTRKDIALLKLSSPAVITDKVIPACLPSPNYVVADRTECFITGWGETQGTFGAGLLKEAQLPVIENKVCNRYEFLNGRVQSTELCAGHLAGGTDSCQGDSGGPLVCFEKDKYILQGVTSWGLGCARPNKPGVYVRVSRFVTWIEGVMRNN
human plasminogen: residues 20-810 of P00747
human miniplasmin: residues 462-810 of P00747
purified mouse VDAC protein (Q3U6K8, form named): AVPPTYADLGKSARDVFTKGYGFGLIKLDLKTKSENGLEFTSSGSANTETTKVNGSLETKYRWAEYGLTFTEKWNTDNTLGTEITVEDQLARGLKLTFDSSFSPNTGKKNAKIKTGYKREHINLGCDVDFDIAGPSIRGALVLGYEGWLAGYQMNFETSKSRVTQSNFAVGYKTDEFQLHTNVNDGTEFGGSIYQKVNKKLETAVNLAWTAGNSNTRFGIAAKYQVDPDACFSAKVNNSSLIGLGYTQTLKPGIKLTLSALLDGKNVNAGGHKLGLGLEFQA

No constants are given. Whether binding was seen depends on the method and setting. Some results given as binding are weak or reduced against the parent protein; the word gives no strength.

Experiment [1] has as its target human miniplasmin (human) (UniProt P00747). Description: dot blot: 50 ng ligand on nitrocellulose, 100 ng/ml VDAC in solution, detected with anti-VDAC antibody and ECL.
Experiment [2] deals with human plasminogen (human) (UniProt P00747). The experiment is described as above.

In the case of “purified mouse VDAC protein (from UniProt Q3U6K8 2-283) (receptor)”, the binding result in experiment [1] and in experiment [2] was “binds” each time.
